Test results published in patent US20250161446A1, “MODIFIED IMMUNE CELLS FOR TREATING AND/OR PREVENTING METASTASIS” (TECHNISCHE UNIVERSITÄT MÜNCHEN, priority 2022, published 2025).
At least one structure is not confirmed: it was looked up by name or label, or the drawing left a doubt.

Test system: human NK cells
Assay: Human NK cells exposed to conditioned medium of human tumor derived cells (HDTC)
Type: cell-based
Conditions: CM of HDTCs cultured with celecoxib (5 μM)

Cc1ccc(-c2cc(C(F)(F)F)nn2-c2ccc(S(N)(=O)=O)cc2)cc1 [celecoxib]
induction of inhibitory transcription factor genes in NK cells by HDTC conditioned medium: this effect was lost
